Test results as given in patent US20170343552A1.
Results are given in words; binding and its absence hold for the method and conditions named. Some binding calls cover weakened binding; strength is not graded here.

Sequences of proteins named here, by UniProt entry; tags and fusion partners are left off. A change or cut given only in a name is not applied to a line headed by its entry. Residues count along the entry.
UniProt P08575, residues 26-577: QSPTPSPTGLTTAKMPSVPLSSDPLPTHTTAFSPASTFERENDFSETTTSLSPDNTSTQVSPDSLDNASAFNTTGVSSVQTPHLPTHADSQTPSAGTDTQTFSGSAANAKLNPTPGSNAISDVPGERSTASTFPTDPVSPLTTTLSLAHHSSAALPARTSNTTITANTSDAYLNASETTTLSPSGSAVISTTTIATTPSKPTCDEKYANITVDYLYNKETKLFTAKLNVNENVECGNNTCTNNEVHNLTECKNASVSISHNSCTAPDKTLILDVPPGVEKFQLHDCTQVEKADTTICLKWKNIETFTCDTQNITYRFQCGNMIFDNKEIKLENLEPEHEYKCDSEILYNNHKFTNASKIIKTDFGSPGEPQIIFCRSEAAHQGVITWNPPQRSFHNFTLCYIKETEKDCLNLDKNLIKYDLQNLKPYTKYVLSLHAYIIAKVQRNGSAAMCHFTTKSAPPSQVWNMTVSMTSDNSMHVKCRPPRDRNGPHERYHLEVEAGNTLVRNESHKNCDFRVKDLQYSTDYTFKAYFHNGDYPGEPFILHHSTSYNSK
UniProt P17931: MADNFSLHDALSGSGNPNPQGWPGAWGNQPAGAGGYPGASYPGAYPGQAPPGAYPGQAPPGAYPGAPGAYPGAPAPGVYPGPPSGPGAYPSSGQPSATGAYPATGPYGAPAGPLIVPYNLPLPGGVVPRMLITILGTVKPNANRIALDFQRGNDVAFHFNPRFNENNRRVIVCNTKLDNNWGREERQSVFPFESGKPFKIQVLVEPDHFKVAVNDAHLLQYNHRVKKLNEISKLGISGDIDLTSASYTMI
UniProt P09382: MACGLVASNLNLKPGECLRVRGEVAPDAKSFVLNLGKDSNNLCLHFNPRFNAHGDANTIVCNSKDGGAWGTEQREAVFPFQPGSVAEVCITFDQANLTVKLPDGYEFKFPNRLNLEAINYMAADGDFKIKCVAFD

Legend:
CD45 (R&D Systems) [1] = target: CD45 (R&D Systems) (UniProt P08575); assay: plate assay: biotinylated HAS-Gal-3 on coated CD45, streptavidin-HRP
CD45 (R&D Systems) [2] = target: CD45 (R&D Systems) (UniProt P08575); assay: plate assay: biotinylated HAS-Gal-1 on coated CD45, streptavidin-HRP
CD45 (R&D Systems) [3] = target: CD45 (R&D Systems) (UniProt P08575); assay: plate assay: biotinylated HAS-Gal-1 (25 ng) on coated CD45, streptavidin-HRP

| binding (CD45 (R&D Systems) [1]) | binding (CD45 (R&D Systems) [2]) | binding (CD45 (R&D Systems) [3]) | Substance |
| --- | --- | --- | --- |
| binds |  |  | Biotinylated His-Avi-SUMO tagged galectin-3 (HAS-Gal-3) (from UniProt P17931 2-250) (ligand) |
|  | binds | binds | Biotinylated His-Avi-SUMO tagged galectin-1 (HAS-Gal-1) (from UniProt P09382 2-135) (ligand) |
